Measured values taken from ChEMBL document CHEMBL1125639, “Synthesis and resolution of (+-)-7-chloro-8-hydroxy-1-(3'-iodophenyl)-3-methyl-2,3,4,5-tetrahydro- 1H-3- benzazepine (TISCH): a high affinity and selective iodinated ligand for CNS D1 dopamine receptor” (J Med Chem, 1991).
pKi: −log10 of the molar value.

Species on record: Rattus norvegicus
Format: functional, Striatum, Membrane

pKi: < 5.30
Structure (SMILES): CC(C)NCC(O)COc1cccc2ccccc12 (racemic) [PROPRANOLOL]
